{"sequences": {"note": "Sequences of proteins named here, by UniProt entry; tags and fusion partners are left off.", "UniProt O15379": "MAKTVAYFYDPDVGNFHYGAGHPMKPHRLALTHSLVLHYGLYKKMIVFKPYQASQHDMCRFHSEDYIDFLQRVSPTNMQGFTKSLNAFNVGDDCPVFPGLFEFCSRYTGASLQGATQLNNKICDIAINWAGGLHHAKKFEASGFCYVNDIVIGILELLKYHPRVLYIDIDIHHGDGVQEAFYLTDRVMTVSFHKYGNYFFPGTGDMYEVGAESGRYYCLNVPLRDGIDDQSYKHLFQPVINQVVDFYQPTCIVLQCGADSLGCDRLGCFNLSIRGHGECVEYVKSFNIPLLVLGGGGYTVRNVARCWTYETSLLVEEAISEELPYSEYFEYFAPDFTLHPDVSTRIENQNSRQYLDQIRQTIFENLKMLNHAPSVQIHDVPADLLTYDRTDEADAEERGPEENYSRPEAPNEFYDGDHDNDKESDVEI", "UniProt P42224": "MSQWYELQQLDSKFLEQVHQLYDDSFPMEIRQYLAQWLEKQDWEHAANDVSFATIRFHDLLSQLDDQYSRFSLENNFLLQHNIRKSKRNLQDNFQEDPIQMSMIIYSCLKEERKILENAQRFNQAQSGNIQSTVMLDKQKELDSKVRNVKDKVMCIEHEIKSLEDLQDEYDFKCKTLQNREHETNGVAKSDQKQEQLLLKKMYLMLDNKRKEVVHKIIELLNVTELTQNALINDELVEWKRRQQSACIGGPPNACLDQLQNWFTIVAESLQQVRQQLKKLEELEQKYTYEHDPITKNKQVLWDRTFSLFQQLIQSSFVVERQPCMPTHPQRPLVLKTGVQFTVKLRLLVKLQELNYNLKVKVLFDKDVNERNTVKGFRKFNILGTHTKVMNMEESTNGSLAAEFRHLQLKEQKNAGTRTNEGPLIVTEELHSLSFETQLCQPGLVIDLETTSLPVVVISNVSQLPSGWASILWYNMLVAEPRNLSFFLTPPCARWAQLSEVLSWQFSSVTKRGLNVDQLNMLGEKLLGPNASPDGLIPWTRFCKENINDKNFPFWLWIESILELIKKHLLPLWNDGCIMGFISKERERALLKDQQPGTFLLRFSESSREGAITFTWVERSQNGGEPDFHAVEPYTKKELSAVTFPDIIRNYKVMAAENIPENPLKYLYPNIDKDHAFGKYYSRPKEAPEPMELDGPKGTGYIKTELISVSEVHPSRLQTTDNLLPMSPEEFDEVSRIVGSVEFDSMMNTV"}, "source": "paper PMC6965636", "binders": {"B1": {"name": "Transketolase (TKT), endogenous (enzyme, UniProt P29401 1-623)", "chain": "MESYHKPDQQKLQALKDTANRLRISSIQATTAAGSGHPTSCCSAAEIMAVLFFHTMRYKSQDPRNPHNDRFVLSKGHAAPILYAVWAEAGFLAEAELLNLRKISSDLDGHPVPKQAFTDVATGSLGQGLGAACGMAYTGKYFDKASYRVYCLLGDGELSEGSVWEAMAFASIYKLDNLVAILDINRLGQSDPAPLQHQMDIYQKRCEAFGWHAIIVDGHSVEELCKAFGQAKHQPTAIIAKTFKGRGITGVEDKESWHGKPLPKNMAEQIIQEIYSQIQSKKKILATPPQEDAPSVDIANIRMPSLPSYKVGDKIATRKAYGQALAKLGHASDRIIALDGDTKNSTFSEIFKKEHPDRFIECYIAEQNMVSIAVGCATRNRTVPFCSTFAAFFTRAFDQIRMAAISESNINLCGSHCGVSIGEDGPSQMALEDLAMFRSVPTSTVFYPSDGVATEKAVELAANTKGICFIRTSRPENAIIYNNNEDFQVGQAKVVLKSKDDQVTVIGAGVTLHEALAAAELLKKEKINIRVLDPFTIKPLDRKLILDSARATKGRILTVEDHYYEGGIGEAVSSAVVGEPGITVTHLAVNRVPRSGKPAELLKMFGIDRDAIAQAVRGLITKA"}}, "key": {"[1]": {"molecular_target": "histone deacetylase 3 (HDAC3), endogenous (human (endogenous in SMMC-7721)) (UniProt O15379)", "test": "co-IP; endogenous proteins; SMMC-7721 and HepG2 cells, whole lysates and cytoplasmic and nuclear fractions of SMMC-7721, also of SMMC-7721 ectopically expressing STAT1; lysis buffer 1 mM EDTA, 40 mM Tris-HCl pH 8, 100 mM NaCl, 0.5% NP-40, 1% Triton X-100; primary antibodies at 4 °C overnight, protein A/G-agarose beads, Western blot"}, "[2]": {"molecular_target": "signal transducer and activator of transcription 1 (STAT1), endogenous (human (endogenous in SMMC-7721 and HepG2)) (UniProt P42224)", "test": "co-IP; endogenous proteins; SMMC-7721 and HepG2 cells, whole lysates and cytoplasmic and nuclear fractions of SMMC-7721, also of SMMC-7721 ectopically expressing STAT1; lysis buffer 1 mM EDTA, 40 mM Tris-HCl pH 8, 100 mM NaCl, 0.5% NP-40, 1% Triton X-100; primary antibodies at 4 °C overnight, protein A/G-agarose beads, Western blot"}}, "note": "No constants are given. Whether binding was seen depends on the method and setting. Binding seen in cells or lysates may run through a third protein. Some results given as binding are weak or reduced against the parent protein; the word gives no strength.", "data": [{"binder": "B1", "values": [{"measurement": "binding", "setting": "[1]", "result": "binds"}, {"measurement": "binding", "setting": "[2]", "result": "binds"}]}]}
